Laboratory results published in PubChem BioAssay AID758 (NMMLSC, 2007).
The campaign covered roughly 190,000 compounds. About 110 (0.058%) were called active. Inconclusive means that the source gave no clear call. Such entries were picked first, then a sample of the others.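 Rule for the calls: active = fluorescent GTP binding to Rab7 beads changed by at least 20 points from the 100% baseline, either direction, mostly lower; inconclusive = compound itself probably fluorescent, or too few beads counted; inactive = the rest.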

These molecules were tested on Rab7 GTPase wild type (dog), Bodipy-FL-GTP binding (assay: modulators of GTP binding to Rab7, primary screen, biochemical, wildtype, multiplex bead flow cytometry (AID 758;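 note: median green fluorescence of bound Bodipy-FL-GTP per Rab7 bead population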)). Conditions: GST-Rab7 beads, fluorescent GTP binding, at 10 µM, actives lie on both sides, untreated = 100%, excess cold GTP = 0%.
For CCS(=O)(=O)N1CCCC(C(=O)NCCN2CCC(Cc3ccccc3)CC2)C1 (stereo unspecified), the GTP binding activity (percent of control) was inconclusive: 104%.
CCN(CC)S(=O)(=O)c1ccc(Cl)c(NC(=O)COc2ccc3c(C)cc(=O)oc3c2)c1 was tested, and the GTP binding activity (percent of control) was inconclusive: 112%.
CCN1CC(c2ccccc2)C(c2ccc(Cl)cc2)=N1 (stereo unspecified) was tested, and the GTP binding activity (percent of control) was inactive: 99%.
CC1(C)N=C(c2ccc(Cl)cc2)C(=O)N1 was tested, and the GTP binding activity (percent of control) was inconclusive: 104%.
For Cc1noc(C)c1COc1ccc(C(=O)OCC(=O)NCc2ccccc2Cl)cc1, the GTP binding activity (percent of control) was inactive: 104%.
In the case of CCOc1ccccc1C(=O)NC(C(=O)Nc1cccc(S(N)(=O)=O)c1)C(C)C (stereo unspecified), the GTP binding activity (percent of control) is reported as inactive: 107%.
In the case of O=C(Cn1cc(/C=N/NC(=O)c2cccc(C(F)(F)F)c2)c2ccccc21)Nc1ccc(F)cc1, the GTP binding activity (percent of control) is reported as inconclusive: 100%.
O=C(CN1CCCCC1)Nc1cccc([N+](=O)[O-])c1 was tested, and the GTP binding activity (percent of control) was inconclusive: 104%.
With Cc1c(C=NCCOCc2ccccc2)cnn1C the GTP binding activity (percent of control) was inconclusive: 97%.
In the case of Cc1ccc(NC(=O)C2CCCN(C(=O)c3ccc(Cl)cc3)C2)cc1C (stereo unspecified), the GTP binding activity (percent of control) is reported as inconclusive: 93%.
With O=C1CN(C(=O)COC(=O)c2ccccc2NCc2ccco2)c2ccccc2N1 the GTP binding activity (percent of control) was inconclusive: 91%.
With COc1ccc(CC(=O)NC(CC(=O)O)c2cccc([N+](=O)[O-])c2)cc1 (stereo unspecified) the GTP binding activity (percent of control) was inconclusive: 95%.
For Cc1nc(C(=O)NC(C)C)nn1-c1cc(Cl)cc(Cl)c1, the GTP binding activity (percent of control) was inactive: 92%.
In the case of Cc1cc(O)c(C(C)C)cc1NC(=O)c1ccccc1Cl, the GTP binding activity (percent of control) is reported as inconclusive: 102%.
Nc1nc(-c2ccccc2)c(N=Nc2ccccc2Cl)s1 was tested, and the GTP binding activity (percent of control) was inconclusive: 98%.
In the case of CCN(CC)c1ccc(/C=C(/C#N)C(=O)NCc2ccccc2)o1, the GTP binding activity (percent of control) is reported as inconclusive: 110%.
For Cc1ccc(CNC(=O)CCOc2ccc(C(C)(C)C)cc2)cc1, the GTP binding activity (percent of control) was inconclusive: 99%.
In the case of COc1ccccc1N/C(N)=N/c1nc(C(F)(F)F)cc(=O)[nH]1, the GTP binding activity (percent of control) is reported as inactive: 108%.
For N#CC1=C(N)Nc2nc3ccccc3n2C1c1ccc(Cl)cc1 (stereo unspecified), the GTP binding activity (percent of control) was inactive: 98%.
In the case of OCC1CCN(Cc2nc(Cc3ccccc3Cl)no2)CC1, the GTP binding activity (percent of control) is reported as inconclusive: 97%.
For Clc1cccc(Oc2cnc3ccccc3n2)c1, the GTP binding activity (percent of control) was inconclusive: 96%.
O=C(CC(=O)N/N=C\c1ccc([N+](=O)[O-])cc1)NCCc1ccccc1 was tested, and the GTP binding activity (percent of control) was inconclusive: 95%.
In the case of CCC(C)(C)n1nnnc1C(C(C)C)N1CCN(C)CC1 (stereo unspecified), the GTP binding activity (percent of control) is reported as inconclusive: 102%.
COc1ccccc1N1C(=O)C2C(c3ccc(F)cc3)NN(C(=O)c3ccc(C)cc3)C2C1=O (stereo unspecified) was tested, and the GTP binding activity (percent of control) was inactive: 88%.
Cc1noc(C)c1S(=O)(=O)N1CCCC(C(=O)c2cccc(OC(C)C)c2)C1 (stereo unspecified) was tested, and the GTP binding activity (percent of control) was inactive: 105%.
COc1ccc(Cl)cc1NC(=S)N1CCN(c2ccccn2)CC1 was tested, and the GTP binding activity (percent of control) was inconclusive: 95%.
In the case of CC(=O)Nc1ccc(S(=O)(=O)Nc2cccc(NC(=O)C(C)(C)C)c2)cc1, the GTP binding activity (percent of control) is reported as inconclusive: 100%.
CCOc1ccc(OCC)c(S(=O)(=O)NCc2ccccn2)c1 was tested, and the GTP binding activity (percent of control) was inactive: 97%.
O=C(COc1ccc(S(=O)(=O)NC2CCCCC2)cc1)NCc1cccnc1 was tested, and the GTP binding activity (percent of control) was inconclusive: 92%.
COc1ccc(N=C2CC(C)(C)CC(=O)/C2=C(/O)c2ccccc2)cc1 was tested, and the GTP binding activity (percent of control) was inactive: 94%.
In the case of CCOc1cc(CO)ccc1OCC(=O)N1CCCCC1, the GTP binding activity (percent of control) is reported as inconclusive: 100%.
In the case of NC(=O)CSc1nnc(C2CC2)n1-c1ccccc1, the GTP binding activity (percent of control) is reported as inactive: 99%.
With Cc1cccc(CSCCNC(=O)CSCc2ccc([N+](=O)[O-])cc2)c1 the GTP binding activity (percent of control) was inconclusive: 97%.
O=c1cc(O)c2sc3nc(C(F)(F)F)c4c(c3c2[nH]1)CCCCC4 was tested, and the GTP binding activity (percent of control) was inconclusive: 94%.
For Cc1c(Cc2ccccc2)c(=O)oc2cc(OCc3ccc(C(=O)O)cc3)ccc12, the GTP binding activity (percent of control) was inconclusive: 92%.
In the case of CCN(C(=O)COC(=O)c1cccnc1SC)C1CCS(=O)(=O)C1 (stereo unspecified), the GTP binding activity (percent of control) is reported as inconclusive: 104%.
In the case of COC(=O)CNC(=O)c1nn(-c2cccc(OC)c2)c(=O)c2ccccc12, the GTP binding activity (percent of control) is reported as inconclusive: 101%.
COc1ccc(-c2nnc3c4ccccc4c(C)nn23)cc1 was tested, and the GTP binding activity (percent of control) was inconclusive: 98%.
For C/C(=N\NC(=O)CSc1nc2nc(C)cc(C)n2n1)c1ccccc1, the GTP binding activity (percent of control) was inconclusive: 92%.
For COc1ccc(CN(C)c2nc(-c3cccnc3)nc3ccccc23)cc1OC, the GTP binding activity (percent of control) was inconclusive: 95%.
Oc1ccc(NC(=S)N=Nc2c(O)[nH]c3ccccc23)cc1 was tested, and the GTP binding activity (percent of control) was inactive: 101%.
In the case of COc1ccc(N/C=C/c2nc(SC)nnc2C)cc1, the GTP binding activity (percent of control) is reported as inactive: 90%.
In the case of Cc1ccccc1NC(=O)CN1C(=O)S/C(=C\c2ccc(-c3cc(C(=O)O)ccc3C)o2)C1=O, the GTP binding activity (percent of control) is reported as inactive: 91%.
In the case of CC(C)Cc1nnc(NC(=O)CCc2c[nH]c3ccccc23)s1, the GTP binding activity (percent of control) is reported as inconclusive: 93%.
For O=[N+]([O-])c1cc(Br)c(O)c(/C=N/Nc2nc3ccccc3s2)c1, the GTP binding activity (percent of control) was inconclusive: 89%.
In the case of CCN(CC)C(=O)Cn1cnc2sc(C(=O)N3CCN(Cc4ccc5c(c4)OCO5)CC3)c(C)c2c1=O, the GTP binding activity (percent of control) is reported as inactive: 108%.
With COc1ccc(NC(=O)N2CCCC2C(=O)NCc2ccc(F)cc2)cc1 (stereo unspecified) the GTP binding activity (percent of control) was inconclusive: 94%.
Cc1cc(C(=O)Oc2cccnc2)ccc1[N+](=O)[O-] was tested, and the GTP binding activity (percent of control) was inactive: 95%.
With C=CCNC(=O)c1ccccc1S(=O)c1ccccc1C#N (stereo unspecified) the GTP binding activity (percent of control) was inconclusive: 91%.
S=C(NCC1COc2ccccc2O1)Nc1ccc(Br)cc1 (stereo unspecified) was tested, and the GTP binding activity (percent of control) was inconclusive: 97%.
For COc1cc(/C=N/NC(=O)c2nc(-c3ccccc3)n(-c3ccccc3)n2)ccc1O, the GTP binding activity (percent of control) was inconclusive: 95%.
CCOc1ccc(N(C)S(=O)(=O)c2ccc(C)c(C(=O)OCC(=O)c3c[nH]c4ccccc34)c2)cc1 was tested, and the GTP binding activity (percent of control) was inactive: 104%.
In the case of Cc1ccc(C2=NN(CCC(=O)NCc3ccc4c(c3)OCO4)C(=O)CC2)cc1, the GTP binding activity (percent of control) is reported as inconclusive: 170%.
O=C(O)c1cc([N+](=O)[O-])ccc1NCc1ccccc1 was tested, and the GTP binding activity (percent of control) was active: 137% [activator].
In the case of COc1ccc(C2Nc3ccccc3C(=O)N2Cc2ccccc2)cc1COc1ccccn1 (stereo unspecified), the GTP binding activity (percent of control) is reported as inconclusive: 109%.
With COc1ccc(C(=O)Nc2nc3ccccc3[nH]2)cc1S(=O)(=O)N1CCOCC1 the GTP binding activity (percent of control) was inactive: 82%.
With O=[N+]([O-])c1ccc(/C=N/N=C/c2ccc([N+](=O)[O-])o2)o1 the GTP binding activity (percent of control) was inactive: 91%.
With CC(CCc1ccccc1)NCC(O)COc1ccccc1 (stereo unspecified) the GTP binding activity (percent of control) was inactive: 107%.
For O=C(O)CCCN1C(=O)/C(=C/c2ccc(-c3nc4ccccc4s3)o2)SC1=S, the GTP binding activity (percent of control) was inconclusive: 85%.
With Cc1nc(/C=C\C(=O)O)c2cc(C)oc2n1 the GTP binding activity (percent of control) was inactive: 99%.
With O=C(NNS(=O)(=O)c1ccc2ccccc2c1)c1cc(-c2ccccn2)nc2ccccc12 the GTP binding activity (percent of control) was inconclusive: 94%.
For CC1CCCCC1NC(=O)Cn1nnc(-c2ccc(Cl)cc2)n1 (stereo unspecified), the GTP binding activity (percent of control) was inconclusive: 96%.
For CCC(O)CNc1nc(SC)nc2sc3c(c12)CCN(C)C3 (stereo unspecified), the GTP binding activity (percent of control) was inactive: 96%.
For Cn1c(N)c(C(=O)COC(=O)[C@@H]2CCCN2S(=O)(=O)c2ccc(Cl)cc2)c(=O)n(C)c1=O, the GTP binding activity (percent of control) was inactive: 92%.
CCc1ccc(N=C2N=C(N)c3ccccc32)cc1 was tested, and the GTP binding activity (percent of control) was inconclusive: 102%.
For CN(C(=O)COC(=O)c1c[nH]c(=O)[nH]c1=O)C1CCCCC1, the GTP binding activity (percent of control) was inconclusive: 104%.
For COCCCNC(=O)Cn1cc(C(=O)C2CC2)c2ccccc21, the GTP binding activity (percent of control) was inconclusive: 92%.
In the case of CNC(=S)N(CCc1cccc(C)c1)Cc1cc2cc(OC)c(OC)cc2[nH]c1=O, the GTP binding activity (percent of control) is reported as inconclusive: 97%.
With O=C(Cn1cc2c(n1)CCCCC2)Nc1c(F)c(F)cc(F)c1F the GTP binding activity (percent of control) was inconclusive: 104%.
In the case of COc1ccc(Cl)cc1-c1nc(SCC(=O)N(C)CCC#N)n[nH]1, the GTP binding activity (percent of control) is reported as inconclusive: 94%.
With O=c1ccc(C(F)(F)F)cn1Cc1cc(=O)n2cc(Br)ccc2n1 the GTP binding activity (percent of control) was inconclusive: 124%.
In the case of Cc1onc(-c2ccccc2Cl)c1C(=O)NCc1cccs1, the GTP binding activity (percent of control) is reported as inconclusive: 105%.
In the case of O=[N+]([O-])c1ccc2nc(CCCc3nc4ccc([N+](=O)[O-])cc4[nH]3)[nH]c2c1, the GTP binding activity (percent of control) is reported as inconclusive: 95%.
For Cc1oc(-c2nc3ccccc3n2C)cc1C(=O)c1ccccc1, the GTP binding activity (percent of control) was inactive: 104%.
For O=C(N/N=C(\c1ccccc1)c1ccccn1)c1cccc([N+](=O)[O-])c1, the GTP binding activity (percent of control) was inconclusive: 83%.
For CC1(c2ccccn2)Nc2ccccc2-c2nc3ccccc3n21 (stereo unspecified), the GTP binding activity (percent of control) was inconclusive: 106%.
N#Cc1c(-c2ccco2)cc(-c2ccccn2)nc1N was tested, and the GTP binding activity (percent of control) was inconclusive: 92%.
O=C(Nc1ccccc1)c1ccc(Cn2cc(C(F)(F)F)ccc2=O)cc1 was tested, and the GTP binding activity (percent of control) was inconclusive: 104%.
Cc1c(NC(=O)CCN2C(=O)c3ccccc3C2=O)c(=O)n(-c2ccccc2)n1C was tested, and the GTP binding activity (percent of control) was inactive: 95%.
In the case of O=C(CSc1ncccn1)NCc1cccc(Cl)c1, the GTP binding activity (percent of control) is reported as inconclusive: 94%.
For COC(=O)c1c(N2C(=O)[C@H]3[C@@H](C2=O)[C@]2(C(=O)Nc4c2ccc(C)c4C)N2CCC[C@@H]32)sc(C)c1C, the GTP binding activity (percent of control) was active: 131% [activator].
With Cc1cc(C)c(C(=O)C2OC(=O)C(C)(C)C(=O)C2(C)C)c(C)c1 (stereo unspecified) the GTP binding activity (percent of control) was inactive: 105%.
With O=C(CSc1nc(-c2ccccc2)cs1)N1CCN(C(=O)c2ccco2)CC1 the GTP binding activity (percent of control) was inconclusive: 95%.
For O=C(CSc1ccccn1)N1CCc2ccccc21, the GTP binding activity (percent of control) was inactive: 96%.
N#CCC(=O)Nc1ncc(Cc2ccccc2Cl)s1 was tested, and the GTP binding activity (percent of control) was inconclusive: 96%.
In the case of Cc1ccc(NC(=O)COc2ccc(-c3nnco3)cc2)cc1S(=O)(=O)N1CCOCC1, the GTP binding activity (percent of control) is reported as inactive: 93%.
CNC(=S)NNC(=O)c1cccn(Cc2ccc(Cl)cc2Cl)c1=O was tested, and the GTP binding activity (percent of control) was inconclusive: 104%.
In the case of Cc1nn(-c2cccc(Cl)c2)c2nc(-c3ccncc3)cc(C(=O)N3CCOCC3)c12, the GTP binding activity (percent of control) is reported as inactive: 104%.
For OC(COc1ccc2c(c1)OCO2)CN1CCN(c2ccc(F)cc2)CC1 (stereo unspecified), the GTP binding activity (percent of control) was inconclusive: 95%.
For O=C(Cc1ccccc1)Nc1cccc(-c2nnc(-c3ccco3)o2)c1, the GTP binding activity (percent of control) was inconclusive: 105%.
For Cc1ccc(Nc2nc(COC(=O)COc3ccc(C=O)cc3)cs2)cc1, the GTP binding activity (percent of control) was inconclusive: 95%.
